Experimental findings from paper PMC3492284 are described below.

These are yes or no findings as the source states them, for the method shown. Binding seen in cells or lysates may run through a third protein. Where a sequence is shown, tags or fusion partners need not be part of it.

For the assay, the target named is T1, HA-epitope tagged Cbl-c, full length (UniProt Q9ULV8).
T1 sequence: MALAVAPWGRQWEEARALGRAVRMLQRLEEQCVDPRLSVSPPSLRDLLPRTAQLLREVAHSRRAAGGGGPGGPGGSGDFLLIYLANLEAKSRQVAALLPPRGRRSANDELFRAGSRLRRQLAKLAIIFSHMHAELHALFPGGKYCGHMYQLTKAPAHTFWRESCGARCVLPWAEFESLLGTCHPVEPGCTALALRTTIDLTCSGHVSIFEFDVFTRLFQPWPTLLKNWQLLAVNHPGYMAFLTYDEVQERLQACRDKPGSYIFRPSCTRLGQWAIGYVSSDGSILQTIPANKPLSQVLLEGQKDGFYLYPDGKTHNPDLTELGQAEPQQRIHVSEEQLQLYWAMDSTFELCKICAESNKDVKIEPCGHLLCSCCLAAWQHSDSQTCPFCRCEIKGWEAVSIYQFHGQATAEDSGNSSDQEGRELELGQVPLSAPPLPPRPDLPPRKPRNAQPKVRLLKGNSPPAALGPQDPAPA
In words: co-IP; HEK293T cells co-transfected; 200 µg lysate protein; HA-tagged Cbl proteins precipitated with HA-affinity matrix overnight at 4°C; lysis buffer 10 mM Tris-HCl pH 7.5, 150 mM NaCl, 5 mM EDTA, 1% Triton X-100, 10% glycerol; blot for Hic-5 or Trip-6.

Turning to “Hic-5 deletion mutant removing LIM domains 2-4 (domain or fragment)”, the binding entry was “no binding”.
